Source: PubChem BioAssay AID330 (DTP/NCI, 2004)
The list shows only some results of the screen, not a fair sample: it is rich in T/C values a quarter to a half above the control, in often repeated tests (any T/C) and in doses without a T/C. Further doses and runs are listed elsewhere. T/C is the treated group as % of the vehicle group. Some doses have a count of surviving animals in place of a T/C: the source holds a T/C of zero for them, seemingly a mark for toxic or unscored doses. Some doses without a T/C left all or most animals alive at the check, yet need not have been tolerated: survival well below the control is almost never listed, so the zero probably covers shortened survival too. Counts of survivors are from the toxicity check (mostly the fifth day) where no day follows; animals may have died later. Schedule codes are those of the source, taken here to give the interval after Q, in days (D) or hours (H), and the number of doses after X. Where survival is the endpoint, the PubChem record calls one and a half times the control and up active, and a quarter to a half above the control has no call in these data; cut-offs in other NCI protocols can differ. Some entries hold several experiments; their values stand side by side, smallest first. Some T/C values carry the count of animals alive at the toxicity check (mostly the fifth day); where none is given, no animal had died by that day.

Tested on: P388 leukemia ip, CD2F1 mice, survival T/C
Assay: NCI In Vivo Anticancer Drug Screen. Data for tumor model P388 Leukemia (intraperitoneal) in CD2F1 (CDF1) mice
Conditions: T/C endpoint: median survival time, higher T/C = longer survival
[1] = dose: 30.0 mg/kg/injection, schedule: Q01DX005 (ip), vehicle: saline with Tween-80
[2] = dose: 50.0 mg/kg/injection, schedule: Q01DX009 (ip), vehicle: saline
[3] = dose: 200.0 mg/kg/injection, schedule: Q01DX009 (ip), vehicle: saline
[4] = dose: 100.0 mg/kg/injection, schedule: Q01DX005 (ip), vehicle: saline with Tween-80
[5] = dose: 200.0 mg/kg/injection, schedule: Q01DX005 (ip), vehicle: saline with Tween-80
[6] = dose: 100.0 mg/kg/injection, schedule: Q01DX009 (ip), vehicle: saline with Tween-80
[7] = dose: 50.0 mg/kg/injection, schedule: Q01DX005 (ip), vehicle: Klucel (hydroxypropylcellulose) (HPC)
[8] = dose: 100.0 mg/kg/injection, schedule: Q01DX005 (ip), vehicle: Klucel (hydroxypropylcellulose) (HPC)
[9] = dose: 200.0 mg/kg/injection, schedule: Q01DX005 (ip), vehicle: Klucel (hydroxypropylcellulose) (HPC)

## CC12C(=O)OC(=O)C1(C)C1CCC2O1 (stereo not given)
dose: 3.75 mg/kg/injection, schedule: Q01DX005 (ip), vehicle: saline with Tween-80
  survivor count: 1 of 6
dose: 7.5 mg/kg/injection, schedule: Q01DX005 (ip), vehicle: saline with Tween-80
  survivor count: 0 of 6
dose: 15.0 mg/kg/injection, schedule: Q01DX005 (ip), vehicle: saline with Tween-80
  survivor count: 0 of 6
[1]
  survivor count: 0 of 6
dose: 60.0 mg/kg/injection, schedule: Q01DX005 (ip), vehicle: saline with Tween-80
  survivor count: 0 of 6
dose: 120.0 mg/kg/injection, schedule: Q01DX005 (ip), vehicle: saline with Tween-80
  survivor count: 0 of 6
dose: 240.0 mg/kg/injection, schedule: Q01DX005 (ip), vehicle: saline with Tween-80
  survivor count: 0 of 6

## C[As](C)SCC(NC(=O)CCC(N)C(=O)O)C(=O)NCC(=O)O (stereo not given)
dose: 12.5 mg/kg/injection, schedule: Q01DX009 (ip), vehicle: saline
  T/C: 125 % of control [5 of 6 alive]
dose: 25.0 mg/kg/injection, schedule: Q01DX009 (ip), vehicle: saline
  T/C: 142 % of control
[2]
  T/C: 125 % of control [5 of 6 alive]
dose: 100.0 mg/kg/injection, schedule: Q01DX009 (ip), vehicle: saline
  T/C: 124, 127, 134, 164 % of control
[3]
  survivor count: 5 of 6
dose: 400.0 mg/kg/injection, schedule: Q01DX009 (ip), vehicle: saline
  survivor count: 0 of 6

## CC(C)COC(=O)N(CCF)N=O
dose: 2.5 mg/kg/injection, schedule: Q01DX009 (ip), vehicle: saline with Tween-80
  T/C: 126 % of control
dose: 5.0 mg/kg/injection, schedule: Q01DX009 (ip), vehicle: saline with Tween-80
  T/C: 128 % of control
dose: 10.0 mg/kg/injection, schedule: Q01DX009 (ip), vehicle: saline with Tween-80
  survivor count: 6 of 6
dose: 20.0 mg/kg/injection, schedule: Q01DX009 (ip), vehicle: saline with Tween-80
  survivor count: 0 of 6

## S=S1CC2(CSSC2)C1.[Cl][Hg][Cl]
dose: 30.0 mg/kg/injection, schedule: Q01DX009 (ip), vehicle: saline
  survivor count: 3 of 6

## CC1CCCC(C)N1Cc1ccccc1 (stereo not given)
[4]
  survivor count: 0 of 6
[5]
  survivor count: 0 of 6

## NC(=O)CN1CCN(c2ccnc3cc(Cl)ccc23)CC1
dose: 200.0 mg/kg/injection, schedule: Q04DX002 (ip), vehicle: saline with Tween-80
  survivor count: 6 of 6
dose: 400.0 mg/kg/injection, schedule: Q04DX002 (ip), vehicle: saline with Tween-80
  survivor count: 0 of 6

## CCN(C(=O)CCl)c1ccccc1C
dose: 200.0 mg/kg/injection, schedule: Q04DX003 (ip), vehicle: saline with Tween-80
  survivor count: 6 of 6

## C(=NCCN=Cc1ccccc1)c1ccccc1
[6]
  survivor count: 5 of 6

## O=S(=O)(O)C1=CC(=N/Cl)/C=CC/1=N\Cl
dose: 400.0 mg/kg/injection, schedule: Q01DX005 (ip), vehicle: saline
  survivor count: 3 of 5

## C=C1CC2(C)CCC(OC(=O)C3(C)OC3C)C(C)(OC(C)=O)C2CC1=C(C)C (stereo not given)
dose: 600.0 mg/kg/injection, schedule: Q01DX001 (ip), vehicle: Klucel (hydroxypropylcellulose) (HPC)
  survivor count: 2 of 6

## OC(/C=C/CC(O)(C(F)(F)F)C(F)(F)F)(C(F)(F)F)C(F)(F)F
[3]
  survivor count: 6 of 6

## CC(C)(C)N1COC(c2ccccc2)C1 (stereo not given)
dose: 200.0 mg/kg/injection, schedule: Q01DX005 (ip), vehicle: saline
  survivor count: 0 of 6

## C=C1C(=O)O[C@@H]2C(=O)[C@@H](C)[C@@H]3C=CC(=O)[C@@]3(C)[C@@H](OC(=O)/C(C)=C\C)[C@H]12
dose: 16.0 mg/kg/injection, schedule: Q01DX009 (ip), vehicle: saline + alcohol
  T/C: 125 % of control
dose: 32.0 mg/kg/injection, schedule: Q01DX009 (ip), vehicle: saline + alcohol
  T/C: 130 and 131 % of control
dose: 64.0 mg/kg/injection, schedule: Q01DX009 (ip), vehicle: saline + alcohol
  survivor count: 4 of 6

## O=C1c2cccc([N+](=O)[O-])c2C(=O)c2nccnc21
dose: 25.0 mg/kg/injection, schedule: Q01DX005 (ip), vehicle: Klucel (hydroxypropylcellulose) (HPC)
  survivor count: 1 of 6
[7]
  survivor count: 0 of 6
[8]
  survivor count: 0 of 6
[9]
  survivor count: 0 of 6

## COC1=C(OC)C(=O)C([Si](C)(C)C)=C(CO)C1=O
[1]
  survivor count: 1 of 6
dose: 60.0 mg/kg/injection, schedule: Q01DX005 (ip), vehicle: Klucel (hydroxypropylcellulose) (HPC)
  survivor count: 0 of 6
dose: 120.0 mg/kg/injection, schedule: Q01DX005 (ip), vehicle: Klucel (hydroxypropylcellulose) (HPC)
  survivor count: 0 of 6
dose: 240.0 mg/kg/injection, schedule: Q01DX005 (ip), vehicle: Klucel (hydroxypropylcellulose) (HPC)
  survivor count: 0 of 6

## CCOC(=O)C1OC(n2cnc3c(N)ncnc32)C(O)C1O (stereo not given)
[2]
  survivor count: 6 of 6

## Cc1[nH]c(N)nc(=S)c1CCCNc1ccc(C(=O)NC(CCC(=O)O)C(=O)O)cc1 (stereo not given)
[7]
  survivor count: 2 of 6
[8]
  survivor count: 0 of 6
[9]
  survivor count: 0 of 6

## CC(C(=O)O)c1ccc2c(c1)Cc1ccccc1-2 (stereo not given)
[6]
  survivor count: 6 of 6
dose: 200.0 mg/kg/injection, schedule: Q01DX009 (ip), vehicle: saline with Tween-80
  survivor count: 5 of 6

## CC(NNC(=S)NCc1ccccc1)c1cc2ccccc2cn1 (stereo not given)
[4]
  T/C: 131 % of control
[5]
  T/C: 135 % of control
dose: 400.0 mg/kg/injection, schedule: Q01DX005 (ip), vehicle: saline with Tween-80
  survivor count: 1 of 6

## CC1(C)C2CCC([CH2][Hg][Cl])C1C2 (stereo not given)
dose: 8.33 mg/kg/injection, schedule: Q01DX009 (ip), vehicle: other
  T/C: 127 % of control
dose: 12.5 mg/kg/injection, schedule: Q01DX009 (ip), vehicle: saline with Tween-80
  survivor count: 4 of 6
dose: 18.7 mg/kg/injection, schedule: Q01DX009 (ip), vehicle: saline with Tween-80
  survivor count: 0 of 6
dose: 18.75 mg/kg/injection, schedule: Q01DX009 (ip), vehicle: other
  survivor count: 2 of 6

## [Cl][Hg][Cl]
dose: 3.75 mg/kg/injection, schedule: Q01DX005 (ip), vehicle: saline
  survivor count: 5 of 6
dose: 7.5 mg/kg/injection, schedule: Q01DX005 (ip), vehicle: saline
  survivor count: 0 of 6
dose: 15.0 mg/kg/injection, schedule: Q01DX005 (ip), vehicle: saline
  survivor count: 0 of 6
dose: 30.0 mg/kg/injection, schedule: Q01DX005 (ip), vehicle: saline
  survivor count: 0 of 6
dose: 60.0 mg/kg/injection, schedule: Q01DX005 (ip), vehicle: saline
  survivor count: 0 of 6
dose: 120.0 mg/kg/injection, schedule: Q01DX005 (ip), vehicle: saline
  survivor count: 0 of 6
dose: 240.0 mg/kg/injection, schedule: Q01DX005 (ip), vehicle: saline
  survivor count: 0 of 6

## O=C(O)c1cccc2c1Cc1cc([N+](=O)[O-])ccc1-2
[9]
  survivor count: 3 of 6
